Test results: US5198424A, “Functionally active selectin-derived peptides” (Board of Regents of the University of Oklahoma, priority 1992, dated 1993)
Part of at least one peptide drawing is inferred or uncertain, most often the ends. Some entries repeat one wording, which the source may state once for all of them. Ends that are not written are not given here.

Target: T1, GMP-140 (Homo sapiens, UniProt P16109)
T1 sequence (P16109 42-830): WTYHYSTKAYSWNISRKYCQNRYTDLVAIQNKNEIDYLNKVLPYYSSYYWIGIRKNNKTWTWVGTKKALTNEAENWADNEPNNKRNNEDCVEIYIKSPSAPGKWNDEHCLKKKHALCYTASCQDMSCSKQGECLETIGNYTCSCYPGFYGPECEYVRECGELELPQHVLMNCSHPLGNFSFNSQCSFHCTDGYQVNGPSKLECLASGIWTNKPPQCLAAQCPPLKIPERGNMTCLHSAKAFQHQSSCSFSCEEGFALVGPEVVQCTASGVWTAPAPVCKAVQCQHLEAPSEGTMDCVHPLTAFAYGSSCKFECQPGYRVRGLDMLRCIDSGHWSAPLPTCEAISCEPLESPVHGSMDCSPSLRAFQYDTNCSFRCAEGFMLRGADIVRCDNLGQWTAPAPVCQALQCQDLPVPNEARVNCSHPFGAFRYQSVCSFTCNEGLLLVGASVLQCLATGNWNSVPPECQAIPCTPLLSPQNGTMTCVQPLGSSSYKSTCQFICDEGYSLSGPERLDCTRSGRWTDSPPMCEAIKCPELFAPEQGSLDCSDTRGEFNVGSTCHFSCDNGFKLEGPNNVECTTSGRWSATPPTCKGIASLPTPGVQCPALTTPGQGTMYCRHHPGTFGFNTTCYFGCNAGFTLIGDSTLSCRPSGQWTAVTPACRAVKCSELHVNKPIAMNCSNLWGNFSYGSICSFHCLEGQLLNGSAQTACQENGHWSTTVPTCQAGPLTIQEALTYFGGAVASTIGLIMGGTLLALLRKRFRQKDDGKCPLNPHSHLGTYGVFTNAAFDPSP
Assay: Neutrophil adhesion to purified GMP-140 immobilized on plastic wells (myeloperoxidase readout)
Type: cell-based
Parameters: from tissue; host or cells: outdated human platelet packs (platelet lysate)
Settings: for inhibition of neutrophil binding to immobilized GMP-140, dependence on concentration: FIG. 3, 0.1 mM to 1.5 mM peptide
Description: Peptides were screened for their ability to inhibit neutrophil adhesion to purified GMP-140 immobilized on plastic wells, using the assay described by Geng, et al., Nature 343, 757-760 (1990).
Human neutrophils are isolated from heparinized whole blood by density gradient centrifugation on Mono-Poly resolving media, Flow Laboratories. Neutrophil suspensions are greater than 98% pure and greater than 95% viable by trypan blue exclusion. For adhesion assays, neutrophils are suspended at a concentration of 2×10^6 cells/ml in Hanks' balanced salt solution containing 1.26 mM Ca^2+ and 0.81 mM Mg^2+ (HBSS, Gibco) with 5 mg/ml human serum albumin (HBSS/HSA). Adhesion assays are conducted in triplicate in 96-well microtiter plates, Corning, incubated at 4° C. overnight with 50 microliters of various protein solutions.
GMP-140 is plated at 5 micrograms/ml and the control proteins: human serum albumin (Alb), platelet glycoprotein IIb/IIIa (IIb), von Willebrand factor (vWF), fibrinogen (FIB), thrombomodulin (TM), gelatin (GEL) or human serum (HS), are added at 50 micrograms/ml. All wells are blocked for 2 h at 22° C. with 300 microliters HBSS containing 10 mg/ml HSA, then washed three times with HBSS containing 0.1% Tween-20 and once with HBSS. Cells (2×10^5 per well were added to the wells and incubated at 22° C. for 20 min. The wells were then filled with HBSS/HSA, sealed with acetate tape (Dynatech), and centrifuged inverted at 150 g for 5 min. After discarding nonadherent cells and supernates, the contents of each well are solubilized with 200 microliters 0.5% hexadecyltrimethylammonium bromide, Sigma, in 50 mM potassium phosphate, pH 6.0, and assayed for myeloperoxidase activity, Ley, et al., Blood 73, 1324-1330 (1989). The number of cells bound was derived from a standard curve of myeloperoxidase activity versus numbers of cells. Under all assay conditions, the cells released less than 5% of total myeloperoxidase and lactate dehydrogenase. Results are presented in Table I. 100% adhesion is that seen in the presence of the C-terminal peptide (amino acid residues 761-777 of GMP-140) as a negative control; this value is the same as controls in which neither peptide nor antibody is added to the cells. Inhibition is read as a lower percent adhesion, so that a value of 5% mean that 95% of the specific adhesion was inhibited.
Peptides from the lectin-like domain of GMP-140 were assayed for their ability to inhibit adhesion of neutrophils to immobilized GMP-140 in the assay described in example 1. Concentrations tested ranged from 0.1 mM to 1.5 mM.

| Sequence | inhibition of neutrophil binding to immobilized GMP-140, dependence on concentration | inhibition of neutrophil adhesion to immobilized GMP-140 (in words) |
| --- | --- | --- |
| RKNNKTWTWV [54-63] | inhibited binding in a dose-dependent manner |  |
| CQNRYTDLVAIQNKNE [19-34] |  | inhibited adhesion |
| RKNNKTWTWVGTKKALTNE [54-72] |  | inhibited adhesion |
| AENWADNEPNNKRNNED [73-89] |  | inhibited adhesion |
| AENWADNEPNN [73-83] | inhibited binding in a dose-dependent manner |  |
| YTDLVAIQ [23-30] | inhibited binding in a dose-dependent manner |  |
